PubChem BioAssay AID1224830 | NIAID – 2016
In all, the deposit lists about 18,000 reagents; below is a part drawn at random. About 2,900 of them (16%) were called active. 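Calls are made per well; low scores hint the gene aids the LPS response, high scores that it dampens it.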 Repeated entries: four replicate wells of each siRNA pool. Reagent sequences are not shown.

- Assay: 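Host factors that control LPS-induced TNF expression in human macrophages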 (primary screen)
- Cells: human THP-1 monocytic leukaemia cells, TNF dual-luciferase reporter clone, PMA-differentiated to macrophage-like cells
- Reagent: siRNA pool against human genes, 50 nM
- Timing: LPS for 4 h, given about 3 days after siRNA transfection
- Conditions: bacterial LPS (TLR4 ligand), 10 ng/ml
- Measurement: 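Ratio of firefly to renilla light, scaled to the plate median and expressed as a robust z-score per replicate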
- Reading the numbers: TNF reporter robust z-score: higher = stronger TNF reporter response to LPS
- Call rule: 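Each well counts as active if its z-score is over 2.8 or under -1.5; controls are left without a call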

For FAM161A, the entry reads TNF reporter robust z-score -0.2; inactive.
FAM161A gave TNF reporter robust z-score 0.67; inactive.
Knock-down of FAM161A gave: TNF reporter robust z-score 0; inactive.
Depletion of FAM161A came out at: TNF reporter robust z-score 0.12; inactive.
Against SGSM1, the entry reads TNF reporter robust z-score -0.58; inactive.
Knock-down of SGSM1 came out at: TNF reporter robust z-score 0.11; inactive.
SGSM1 showed TNF reporter robust z-score 0.13; inactive.
For SGSM1, the entry reads TNF reporter robust z-score 1.3; inactive.
Silencing of VPS50 came out at: TNF reporter robust z-score 3.12; active.
With knock-down of VPS50 the results were TNF reporter robust z-score 1.6; inactive.
VPS50 showed TNF reporter robust z-score -0.09; inactive.
Depletion of VPS50 gave: TNF reporter robust z-score 1.68; inactive.
With knock-down of TDRD1, the record shows TNF reporter robust z-score -1.32; inactive.
With knock-down of TDRD1 the results were TNF reporter robust z-score -1.2; inactive.
Against TDRD1 the deposit lists TNF reporter robust z-score -0.72; inactive.
Against TDRD1, the values are TNF reporter robust z-score -0.7; inactive.
Against TRIO, the entry reads TNF reporter robust z-score 1.03; inactive.
After knock-down of TRIO, the screen gave TNF reporter robust z-score 0.28; inactive.
TRIO gave TNF reporter robust z-score 0.39; inactive.
For TRIO, the entry reads TNF reporter robust z-score 0.89; inactive.

7 successive reagents already listed, for reference:
SGSM1 — TNF reporter robust z-score = 0.11; Call = inactive
SGSM1 — TNF reporter robust z-score = 0.13; Call = inactive
SGSM1 — TNF reporter robust z-score = 1.3; Call = inactive
VPS50 — TNF reporter robust z-score = 3.12; Call = active
VPS50 — TNF reporter robust z-score = 1.6; Call = inactive
VPS50 — TNF reporter robust z-score = -0.09; Call = inactive
VPS50 — TNF reporter robust z-score = 1.68; Call = inactive

The results go on.
CMPK1 showed TNF reporter robust z-score 1.1; inactive.
CMPK1 gave TNF reporter robust z-score 0.64; inactive.
CMPK1 showed TNF reporter robust z-score 0.53; inactive.
CMPK1 scored TNF reporter robust z-score 0.31; inactive.
For LYPD3 the deposit lists TNF reporter robust z-score -0.9; inactive.
With knock-down of LYPD3, the screen gave TNF reporter robust z-score 0.03; inactive.
Against LYPD3, the entry reads TNF reporter robust z-score -0.85; inactive.
After knock-down of LYPD3, the screen gave TNF reporter robust z-score 0.07; inactive.
ZNF267 gave TNF reporter robust z-score 2.45; inactive.
Against ZNF267, the values are TNF reporter robust z-score -0.02; inactive.
After knock-down of ZNF267 the results were TNF reporter robust z-score 0.25; inactive.
ZNF267 scored TNF reporter robust z-score 0.45; inactive.
For TREH the deposit lists TNF reporter robust z-score -0.75; inactive.
TREH gave TNF reporter robust z-score 0.28; inactive.
For TREH the deposit lists TNF reporter robust z-score -1.89; active.
With knock-down of TREH, the screen gave TNF reporter robust z-score 1.29; inactive.
Depletion of CDC45 gave: TNF reporter robust z-score -0.12; inactive.
CDC45 scored TNF reporter robust z-score 0.35; inactive.
After knock-down of CDC45, the screen gave TNF reporter robust z-score 0.58; inactive.
CDC45 scored TNF reporter robust z-score 0.52; inactive.
Knock-down of GALR1 came out at: TNF reporter robust z-score 0.66; inactive.
GALR1 scored TNF reporter robust z-score 1.11; inactive.
GALR1 showed TNF reporter robust z-score 1.57; inactive.
GALR1 gave TNF reporter robust z-score 2.78; inactive.
For EIF5 the deposit lists TNF reporter robust z-score 0.14; inactive.
For EIF5 the deposit lists TNF reporter robust z-score 0.29; inactive.
EIF5 gave TNF reporter robust z-score -0.06; inactive.
After knock-down of EIF5 the results were TNF reporter robust z-score 0.04; inactive.
